Measured values from article PMC13496012.
Results are given in words; binding and its absence hold for the method and conditions named. In cells and extracts the contact can be indirect. Some binding calls cover weakened binding; strength is not graded here. Where a sequence is shown, tags or fusion partners need not be part of it.

By UniProt entry, the sequences of proteins in these tests, tags left out.
UniProt P05556: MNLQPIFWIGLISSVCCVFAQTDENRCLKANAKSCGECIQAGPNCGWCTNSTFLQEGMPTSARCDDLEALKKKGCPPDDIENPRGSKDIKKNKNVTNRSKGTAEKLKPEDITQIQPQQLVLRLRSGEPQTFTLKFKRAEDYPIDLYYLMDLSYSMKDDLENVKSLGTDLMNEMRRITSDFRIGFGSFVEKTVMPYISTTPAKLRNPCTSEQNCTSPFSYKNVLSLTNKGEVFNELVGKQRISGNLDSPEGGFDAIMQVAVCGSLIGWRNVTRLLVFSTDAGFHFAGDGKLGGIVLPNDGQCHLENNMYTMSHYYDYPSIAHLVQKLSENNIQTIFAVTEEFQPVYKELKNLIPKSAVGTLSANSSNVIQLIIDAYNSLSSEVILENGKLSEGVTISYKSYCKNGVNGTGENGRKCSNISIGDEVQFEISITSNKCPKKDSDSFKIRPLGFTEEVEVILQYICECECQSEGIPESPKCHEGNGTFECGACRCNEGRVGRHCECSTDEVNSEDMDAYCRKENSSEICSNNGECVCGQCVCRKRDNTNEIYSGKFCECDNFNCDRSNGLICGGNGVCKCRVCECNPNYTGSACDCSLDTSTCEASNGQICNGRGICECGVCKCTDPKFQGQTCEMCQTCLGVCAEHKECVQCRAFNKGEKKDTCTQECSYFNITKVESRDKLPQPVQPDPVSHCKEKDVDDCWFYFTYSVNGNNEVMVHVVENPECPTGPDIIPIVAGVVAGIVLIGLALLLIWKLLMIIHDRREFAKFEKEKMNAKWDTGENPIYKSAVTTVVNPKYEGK

How the values were obtained:
[1] = biological target: β1-integrin subunit (human (endogenous in TIME cells)) (UniProt P05556); test: proximity ligation; cell surface PLA (Duolink) in fixed TIME cells transfected with Halo-CD36; anti-β1-integrin K20 applied before permeabilization, anti-HaloTag after; TIRFM; read-out ratio of PLA detection density in CD36-expressing to non-expressing cells
[2] = biological target: β1-integrin subunit (human (endogenous in TIME cells)) (UniProt P05556); test: proximity ligation; whole cell PLA (Duolink) in fixed, permeabilized TIME cells transfected with Halo-CD36; rabbit anti-HaloTag with mouse anti-β1-integrin K20 (total) or 12G10 (active); mitofilin antibody as negative control; spinning disk confocal; read-out percent of cell area occupied by PLA puncta

binding [1]: binds
binding [2]: binds
B1: HaloTag-fused CD36 G12V (Halo-CD36^G12V) (receptor, UniProt P16671 1-472)
chain: MGCDRNCGLIAVAVIGAVLAVFGGILMPVGDLLIQKTIKKQVVLEEGTIAFKNWVKTGTEVYRQFWIFDVQNPQEVMMNSSNIQVKQRGPYTYRVRFLAKENVTQDAEDNTVSFLQPNGAIFEPSLSVGTEADNFTVLNLAVAAASHIYQNQFVQMILNSLINKSKSSMFQVRTLRELLWGYRDPFLSLVPYPVTTTVGLFYPYNNTADGVYKVFNGKDNISKVAIIDTYKGKRNLSYWESHCDMINGTDAASFPPFVEKSQVLQFFSSDICRSIYAVFESDVNLKGIPVYRFVLPSKAFASPVENPDNYCFCTEKIISKNCTSYGVLDISKCKEGRPVYISLPHFLYASPDVSEPIDGLNPNEEEHRTYLDIEPITGFTLQFAKRLQVNLLVKPSEKIQVLKNLKRNYIVPILWLNETGTIGDEKANMFRSQVTGKINLLGLIEMILLSVGVVMFVAFMISYCACRSKTIK
